Test [1] has as its target T1, ACTL7B fused to eGFP (mouse) (UniProt Q9QY83).
T1 sequence: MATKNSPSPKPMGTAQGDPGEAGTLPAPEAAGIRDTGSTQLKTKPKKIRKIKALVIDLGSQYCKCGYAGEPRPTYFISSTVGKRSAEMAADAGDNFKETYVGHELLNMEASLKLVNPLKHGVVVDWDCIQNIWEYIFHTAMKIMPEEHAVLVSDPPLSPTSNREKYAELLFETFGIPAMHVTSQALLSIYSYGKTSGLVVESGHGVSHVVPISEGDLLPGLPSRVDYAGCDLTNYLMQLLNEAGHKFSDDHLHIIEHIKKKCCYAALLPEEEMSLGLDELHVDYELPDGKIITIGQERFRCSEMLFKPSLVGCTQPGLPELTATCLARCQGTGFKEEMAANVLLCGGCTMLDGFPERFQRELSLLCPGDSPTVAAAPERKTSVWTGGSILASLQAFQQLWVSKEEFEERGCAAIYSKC
The experiment in a line: affinity purification with mass spectrometry; GFP nanobody-coupled magnetic beads (GFP-Trap) on lysate of HEK cells stably expressing Actl7b-eGFP; eluate in Laemmli's buffer; targeted mass spectrometry analysis.

By UniProt entry, the sequences of proteins in these tests, tags left out.
UniProt P63167: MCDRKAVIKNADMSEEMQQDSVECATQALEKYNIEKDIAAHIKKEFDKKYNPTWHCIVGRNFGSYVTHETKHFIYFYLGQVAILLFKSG
UniProt P63168: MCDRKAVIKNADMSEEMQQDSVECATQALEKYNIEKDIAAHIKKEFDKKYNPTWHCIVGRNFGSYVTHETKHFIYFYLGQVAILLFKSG

The target of test [2] is T2, ACTL7B (mouse (endogenous in testis)) (UniProt Q9QY83).
T2 sequence: T1 sequence
Description: affinity purification with mass spectrometry; anti-ACTL7B antibody coupled to Dynabeads, co-immunoprecipitation from protein extracts of whole wild-type mouse testes; uncoupled beads as control; eluate identified by LC/MS.

These are yes or no findings as the source states them, for the method shown. In cells and extracts the contact can be indirect. These calls come from enrichment with a bait or labelling near it, and not all partners need be listed. For some assays here: Tags and fused reporters may be left off the sequences shown.

For the substance DYNLL1 (from UniProt P63167 1-89), in test [1], the binding entry was “binds”.

For “dynein light chain 1 (DYNLL1) (from UniProt P63168 1-89)”, the binding entry in test [2] is “binds”.

The values are drawn from paper PMC10652042.
